Among all 320,000 compounds or so, about 620 (0.19%) were called active. Inconclusive results, whose numbers are uncertain, are shown with a selection of clear calls. No stated cut-off is given here; in the data, active means activation above about 80%; inconclusive means between about 30% and that limit; inactive means weaker than that.
biological target: Transient receptor potential cation channel subfamily V member 1 (Homo sapiens) (UniProt Q8NER1); test: HTS Assay for Compounds that Act as Agonists of the Vanilloid Receptor 1; conditions: TRPV1-expressing cells, Fluo-8 calcium influx, agonist mode; at 8.33 µM, active compounds read high; further: 0% is about no effect
How it was run: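 Cells expressing TRPV1 were dye-loaded with Fluo-8 and read kinetically: 10 s baseline, 3 min after compound (agonist portion), then 2 min after EC20 capsaicin (allosteric enhancer portion). Calcium-bound dye fluorescence at 480/520 nm.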

By UniProt entry, the sequences of proteins in these tests, tags left out.
UniProt Q8NER1, whole entry, looked up: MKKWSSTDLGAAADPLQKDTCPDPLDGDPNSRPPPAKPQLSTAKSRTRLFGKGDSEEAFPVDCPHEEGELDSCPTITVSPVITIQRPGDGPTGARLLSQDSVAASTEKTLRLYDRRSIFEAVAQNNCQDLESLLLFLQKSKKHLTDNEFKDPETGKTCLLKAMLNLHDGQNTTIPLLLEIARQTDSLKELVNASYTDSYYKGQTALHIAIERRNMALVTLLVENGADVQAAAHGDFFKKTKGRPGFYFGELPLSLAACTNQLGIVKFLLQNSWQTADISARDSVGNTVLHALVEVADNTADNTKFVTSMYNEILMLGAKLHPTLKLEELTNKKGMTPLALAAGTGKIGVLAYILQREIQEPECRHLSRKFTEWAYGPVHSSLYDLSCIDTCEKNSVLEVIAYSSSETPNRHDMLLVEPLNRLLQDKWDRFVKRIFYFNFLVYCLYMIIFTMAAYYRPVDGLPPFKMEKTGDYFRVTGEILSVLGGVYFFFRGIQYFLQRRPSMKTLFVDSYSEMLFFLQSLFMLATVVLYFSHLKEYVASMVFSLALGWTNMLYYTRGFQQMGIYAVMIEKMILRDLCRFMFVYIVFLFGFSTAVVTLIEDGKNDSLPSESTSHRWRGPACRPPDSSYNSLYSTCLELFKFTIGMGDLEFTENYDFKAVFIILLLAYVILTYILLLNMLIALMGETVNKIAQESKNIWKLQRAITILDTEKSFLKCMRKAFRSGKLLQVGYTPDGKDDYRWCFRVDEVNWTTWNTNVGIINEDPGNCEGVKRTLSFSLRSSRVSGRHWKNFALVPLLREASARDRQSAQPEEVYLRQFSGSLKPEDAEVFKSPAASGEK

Row | Compound | activation
1 | O=C(CN(Cc1ccc(Cl)cc1)S(=O)(=O)c1ccccc1)NCC1CCCO1 (stereo unspecified) | inconclusive: 36%
2 | COc1ccccc1CNS(=O)(=O)c1cc(C(=O)NCc2ccccn2)c(Cl)cc1Cl | inactive: -2.79%
3 | CCOC(=O)c1ccc(NC(=O)c2cccc(S(=O)(=O)N3CCOCC3)c2)cc1 | inconclusive: 66.7%
4 | Cc1cccc2cc(CN(Cc3ccco3)C(=O)c3ccncc3)c(=O)[nH]c12 | inactive: -1.49%
5 | CCOC(=O)C1=C(c2ccccc2)N=c2s/c(=C\c3ccc(O)cc3)c(=O)n2C1c1cccs1 (stereo unspecified) | inconclusive: 53.9%
6 | O=C(CSc1nnc2c(n1)[nH]c1ccc(S(=O)(=O)N3CCOCC3)cc12)Nc1ccccc1Cl | inconclusive: 57.6%
7 | Fc1ccc(COc2ccc3ccccc3c2CNc2nn[nH]n2)cc1 | inactive: 2.73%
8 | CCc1nc2ccc(C(=O)Nc3ccc4c(c3)OCO4)cc2nc1CC | inconclusive: 41.5%
9 | O=C(/C=C/c1ccco1)Nc1cccc(NC(=O)/C=C/c2ccco2)n1 | inactive: 0.423%
10 | CN(C(=O)/C=C/c1ccc2c(c1)OCO2)c1ccccc1 | inconclusive: 31.8%
11 | Cc1onc(-c2ccccc2)c1C(=O)Nc1nc(-c2cc(F)ccc2F)cs1 | inactive: -1.2%
12 | CC1C=CCC2C(=O)N(c3cccc(C(=O)Nc4ccc(F)cc4)c3)C(=O)C12 (stereo unspecified) | inconclusive: 32.6%
13 | N#C/C(=C\c1ccc(Sc2ccc(Cl)cc2)o1)c1nc2ccccc2[nH]1 | inconclusive: 35%
14 | Cc1ccc(NC(=O)Cn2c(=S)[nH]c3ccccc32)cc1 | inconclusive: 51.2%
15 | CCOC(=O)C1(CCCc2ccccc2)CCN(C(=O)c2ocnc2C)CC1 | inconclusive: 72.9%
16 | CCC(Sc1nc2ccncc2[nH]1)C(=O)Nc1cc(Cl)ccc1C (stereo unspecified) | inconclusive: 43.8%
17 | Cc1occc1C(=O)N/N=C/C(Br)=C\c1ccccc1 | inconclusive: 44.4%
18 | CSc1nc2ccc(NC(=O)CSc3nnc(N)s3)cc2s1 | inactive: 1.17%
19 | O=C(Nc1ccc(Cl)cc1)c1csc(-c2ccccc2)n1 | active: 81.3%

Row | Compound | activation
20 | CN(CC(=O)Nc1cccc(F)c1)C(=O)CCSc1ccc(F)cc1 | inconclusive: 45.8%
21 | Cc1ccc(C2=NCCn3c2c2ccc(C(F)(F)F)cc2[n+]3[O-])cc1 | inactive: 20.6%
22 | Cc1cc(C(=O)Nc2ccc(N3CCCC3)c(Cl)c2)ccc1[N+](=O)[O-] | inconclusive: 44.3%
23 | COc1ccc(-n2c(-c3ccc(Br)cc3)c[n+]3c2CCC3)cc1 | inactive: 2.71%
24 | Cc1ccc(OC(=O)C23CC4CC(CC(C4)C2)C3)c(C)n1 | inconclusive: 59.6%
25 | COc1cc(CNc2ccc(N3CCCCC3)cc2)ccc1OCC(=O)NC(C)(C)C | inactive: 2.03%
26 | CN(C)c1ccc(/C=C/C(O)=C2/C(=O)N(C)C3(C)CC2c2ccccc2O3)cc1 (stereo unspecified) | inactive: 10.8%
27 | CC1CCCC(NC(=O)C2CCN(C(=O)Nc3ccccc3)CC2)C1C (stereo unspecified) | inconclusive: 32.3%
28 | CCOc1cccc2sc(N(CCCN(C)C)C(=O)c3ccc(S(=O)(=O)N(C)c4ccccc4)cc3)nc12 | inactive: 25.2%
29 | Cc1cccc(OCC(=O)Nc2cc(Cl)ccc2-n2cncn2)c1C | inconclusive: 50.8%
30 | COc1ccc(CNC(=O)c2cccc(S(=O)(=O)N3CCCCC3)c2)cc1OC | inconclusive: 65.1%
31 | O=C(NC12CC3CC(CC(C3)C1)C2)c1ccc(Br)o1 | inconclusive: 43.5%
32 | CC1N(C(=O)N(C)C)CCN1S(=O)(=O)c1ccccc1 (stereo unspecified) | inactive: -1.62%
33 | Cc1ccc(NC(=O)C(=Cc2ccc(C(=O)O)cc2)C(=O)Nc2ccc(C)cc2C)c(C)c1 | inactive: -0.183%
34 | COc1cccc2cc(C(=O)NCc3ccc(Cl)cc3)c(=N)oc12 | inactive: -8.86%
35 | CC(C)(C)c1ccc(C(=O)NCCC(=O)NCc2ccco2)cc1 | inactive: 25%
36 | COc1ccc(NC(=O)c2ccc3ncsc3c2)c2ccccc12 | active: 88.3%
37 | O=C(c1cc(COc2cccc3cnccc23)on1)N1CCCC(CCCO)C1 (stereo unspecified) | inactive: 3.99%
38 | C=CCn1cccc(C(=O)Nc2ccc(SC)cc2)c1=O | inconclusive: 70.4%

Row | Compound | activation
39 | Brc1ccccc1Cn1c(-c2cncs2)nc2ccccc21 | inconclusive: 36.5%
40 | COC(=O)c1sccc1NC(=O)Nc1cccc(F)c1 | inconclusive: 37.6%
41 | COc1cccc(-c2nc(CS(=O)(=O)CC(=O)N3CCCCC3)c(C)o2)c1 | inconclusive: 35.9%
42 | COc1ccc(Br)cc1C(=O)Nc1cccc(NC(=O)c2ccco2)c1 | inconclusive: 34.6%
43 | O=C1NC2(CCc3ccccc3C2)C(=O)N1CCOc1cccc(Cl)c1 (stereo unspecified) | inconclusive: 33.2%
44 | COc1ccc(S(=O)(=O)N2CN(Cc3ccco3)c3nc4ccccc4nc32)cc1 | inactive: 2.38%
45 | COc1ccc(C(=O)NC(=S)N2CCC(C)CC2)cc1Br | inconclusive: 37.3%
46 | CCCCCC(=O)Nc1ccc(C(=O)COC(=O)c2ccccn2)cc1 | inconclusive: 62.5%
47 | CCc1cccc(NC(=O)C2CCN(S(=O)(=O)c3cccs3)CC2)c1 | inconclusive: 53.8%
48 | CCOC(=O)c1nn2c(C(F)(F)F)cc(-c3ccc(OC)cc3)nc2c1Br | inactive: -4.18%
49 | CC1CC(C)CN(C(=O)C2CCCN(c3ncnc4c3nc3n4CCCCC3)C2)C1 (stereo unspecified) | inconclusive: 64.1%
50 | Cn1nc(C(C)(C)C)cc1C(=O)NCc1ccc(N2CCCC2=O)cc1 | inactive: -0.018%
51 | CN1CCc2c(sc(NC(=O)CSc3ccc(F)cc3)c2-c2nc3ccccc3s2)C1 | inconclusive: 51.8%
52 | O=C(Nc1ccc(-c2nc3ccccc3o2)c(O)c1)c1cc(-n2cnnc2)ccc1Cl | inactive: -1.8%
53 | CN(C)c1ccccc1C(=O)N1CCCC(Nc2ccc(F)cc2)C1 (stereo unspecified) | inconclusive: 65.1%
54 | COc1ccc(Cn2c(SCc3cc(C)ccc3C)nc3cc(OC)c(OC)cc3c2=N)cc1 | inactive: -2.63%
55 | O=C(NCc1ccco1)C1CCC(CNS(=O)(=O)c2cccc3cccnc23)CC1 (stereo unspecified) | inconclusive: 51.1%
56 | CCOC(=O)c1cnn(-c2ccc(Cl)cc2)c1C1CCN(C(=O)OC(C)(C)C)CC1 | inconclusive: 49.2%

As entered above.
`COC(=O)c1sccc1NC(=O)Nc1cccc(F)c1` | activation: inconclusive: 37.6%
`O=C1NC2(CCc3ccccc3C2)C(=O)N1CCOc1cccc(Cl)c1` (stereo unspecified) | activation: inconclusive: 33.2%
